No constants are given. Whether binding was seen depends on the method and setting. Binding seen in cells or lysates may run through a third protein. Here binding means that the protein was enriched with, or labelled near, the bait; the list need not be complete. Sequences can lack the tags named with a protein.
Target: T1, KIF1C-BioID-3XFLAG (human) (UniProt O43896)
T1 sequence: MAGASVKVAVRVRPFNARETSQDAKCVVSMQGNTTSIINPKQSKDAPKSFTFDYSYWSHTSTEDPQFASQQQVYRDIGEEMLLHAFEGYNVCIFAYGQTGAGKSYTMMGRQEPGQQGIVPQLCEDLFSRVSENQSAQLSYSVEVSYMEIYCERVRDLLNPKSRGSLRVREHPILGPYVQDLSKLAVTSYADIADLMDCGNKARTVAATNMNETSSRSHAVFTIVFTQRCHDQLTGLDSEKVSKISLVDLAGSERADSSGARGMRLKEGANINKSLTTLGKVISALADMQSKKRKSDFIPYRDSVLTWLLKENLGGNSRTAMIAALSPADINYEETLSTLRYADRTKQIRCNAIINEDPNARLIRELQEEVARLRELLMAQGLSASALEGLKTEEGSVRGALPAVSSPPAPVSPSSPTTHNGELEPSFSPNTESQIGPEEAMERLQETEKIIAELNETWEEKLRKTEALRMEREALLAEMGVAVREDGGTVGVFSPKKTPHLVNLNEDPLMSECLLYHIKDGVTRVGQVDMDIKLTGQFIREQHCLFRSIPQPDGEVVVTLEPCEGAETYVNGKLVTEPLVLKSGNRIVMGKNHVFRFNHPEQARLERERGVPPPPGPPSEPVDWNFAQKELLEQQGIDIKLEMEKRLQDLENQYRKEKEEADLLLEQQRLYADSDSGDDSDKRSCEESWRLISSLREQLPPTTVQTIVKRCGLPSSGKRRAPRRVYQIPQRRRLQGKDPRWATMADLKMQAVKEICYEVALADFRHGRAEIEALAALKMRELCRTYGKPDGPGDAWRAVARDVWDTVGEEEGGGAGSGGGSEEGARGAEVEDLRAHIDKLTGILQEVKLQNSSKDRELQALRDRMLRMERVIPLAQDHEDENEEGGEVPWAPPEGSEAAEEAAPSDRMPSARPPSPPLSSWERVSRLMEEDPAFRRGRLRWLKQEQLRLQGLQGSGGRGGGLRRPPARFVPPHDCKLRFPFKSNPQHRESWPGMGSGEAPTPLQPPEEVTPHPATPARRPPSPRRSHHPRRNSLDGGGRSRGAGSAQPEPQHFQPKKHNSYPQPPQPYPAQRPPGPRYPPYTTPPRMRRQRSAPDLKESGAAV
Assay: proximity labelling

Amino acid sequences for entries named in this document (tags omitted).
UniProt P63172: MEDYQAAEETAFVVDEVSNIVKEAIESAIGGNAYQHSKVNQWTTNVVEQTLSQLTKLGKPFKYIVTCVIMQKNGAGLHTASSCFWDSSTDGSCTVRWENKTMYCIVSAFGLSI

“dynein light chain Tctex-Type 1 (DYNLT1) (from UniProt P63172 1-113)” was tested, and the binding was “binds”.

From article doi:10.1101/508887
